Chains of the proteins cited; added tags and fusions are not shown. Chains listed by the source or under a name are the forms on record and can include a tag or linker.
UniProt Q06219, whole entry: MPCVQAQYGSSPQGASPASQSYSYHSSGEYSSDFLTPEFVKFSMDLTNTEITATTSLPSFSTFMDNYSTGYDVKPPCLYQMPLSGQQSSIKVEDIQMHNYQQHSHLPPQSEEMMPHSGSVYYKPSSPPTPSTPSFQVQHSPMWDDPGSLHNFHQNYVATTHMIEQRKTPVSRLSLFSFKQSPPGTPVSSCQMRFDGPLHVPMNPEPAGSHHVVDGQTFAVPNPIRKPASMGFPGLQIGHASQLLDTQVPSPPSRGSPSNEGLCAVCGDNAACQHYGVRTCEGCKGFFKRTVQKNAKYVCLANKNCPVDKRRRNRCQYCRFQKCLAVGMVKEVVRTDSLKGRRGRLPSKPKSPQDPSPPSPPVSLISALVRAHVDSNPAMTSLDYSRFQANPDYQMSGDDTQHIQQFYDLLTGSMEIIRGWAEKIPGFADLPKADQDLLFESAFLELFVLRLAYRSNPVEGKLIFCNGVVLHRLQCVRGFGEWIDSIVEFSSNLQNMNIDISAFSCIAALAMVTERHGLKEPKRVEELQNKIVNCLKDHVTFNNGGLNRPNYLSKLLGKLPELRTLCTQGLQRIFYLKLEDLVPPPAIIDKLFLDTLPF
Nurr1/p57Kip2 complex (Mus musculus), one chain, as listed by the source, chain 2 of 2: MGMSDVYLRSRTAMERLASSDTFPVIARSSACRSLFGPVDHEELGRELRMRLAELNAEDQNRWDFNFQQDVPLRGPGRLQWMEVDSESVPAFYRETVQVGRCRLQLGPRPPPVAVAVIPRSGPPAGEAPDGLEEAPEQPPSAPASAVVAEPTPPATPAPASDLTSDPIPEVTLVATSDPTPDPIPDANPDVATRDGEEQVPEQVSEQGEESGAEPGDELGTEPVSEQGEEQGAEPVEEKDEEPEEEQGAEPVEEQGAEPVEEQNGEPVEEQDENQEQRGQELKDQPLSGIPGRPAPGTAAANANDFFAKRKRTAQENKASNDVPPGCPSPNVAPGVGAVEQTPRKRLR
Nurr1/p57Kip2 complex (Mus musculus), one chain, as listed by the source, chain 1 of 2: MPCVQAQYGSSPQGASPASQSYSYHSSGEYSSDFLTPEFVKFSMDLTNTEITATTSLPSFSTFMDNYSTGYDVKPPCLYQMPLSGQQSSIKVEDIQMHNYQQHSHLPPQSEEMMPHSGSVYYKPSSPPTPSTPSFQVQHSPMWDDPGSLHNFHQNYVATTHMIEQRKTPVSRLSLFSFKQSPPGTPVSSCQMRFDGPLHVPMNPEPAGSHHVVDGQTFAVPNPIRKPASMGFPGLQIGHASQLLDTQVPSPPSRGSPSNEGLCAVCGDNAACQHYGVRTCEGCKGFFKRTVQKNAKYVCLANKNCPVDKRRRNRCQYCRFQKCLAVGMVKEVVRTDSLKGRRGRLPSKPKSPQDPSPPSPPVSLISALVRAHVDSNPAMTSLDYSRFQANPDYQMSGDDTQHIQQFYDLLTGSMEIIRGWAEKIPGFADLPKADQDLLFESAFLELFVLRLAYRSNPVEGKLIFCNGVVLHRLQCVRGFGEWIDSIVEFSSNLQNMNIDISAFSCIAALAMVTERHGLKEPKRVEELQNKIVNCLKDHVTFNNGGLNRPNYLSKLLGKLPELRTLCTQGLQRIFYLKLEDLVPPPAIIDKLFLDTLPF

In US20040235096:

What was measured:
[1] = biological target: Nurr1 (Mus musculus) (UniProt Q06219); assay: EMSA; details: shift seen by autoradiography; protein in an extract; protein details: FLAG, nuclear extract of transfected HEK293 cells; label: 32P
[2] = system: Nurr1/p57Kip2 complex (Mus musculus); assay: EMSA; details: supershift of Nurr1/p57Kip2 complex on NBRE; HA antibody abolished binding of p57Kip2 to NBRE-bound Nurr1; protein in an extract; label: 32P

What does the source list for “AGCTTGAGTTTTAAAAGGTCATGCTCAATTT (double strand) [NBRE probe]”?
binding result [1]: binds; binding result [2]: binds

At least one result comes from cells or an extract, where the contact may be indirect.
